Values joined by “and” are separate entries in the source; they are usually repeats but may differ in a detail not shown here. Equal entries are not always repeated. The list shows a part of the results. Shown are side measurements of this screen, not its main read-out; they come without a call. Compounds called inactive in the main read-out are mostly missing here. Words in brackets tell the shape of the fitted curve; partial curves, single points and poor fits give uncertain potencies.
Assay: Cell signaling CRE-BLA (Fsk stim)
Settings: CHO CRE-bla reporter (cAMP response element driving beta-lactamase), forskolin EC10, beta-lactamase ratio; measured here: 460 nm blue channel
Procedure, shortened: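 Forskolin analogue NKH 477 at EC10 stimulated CRE-driven beta-lactamase in CHO cells alongside compound dilution series. Beta-lactamase was measured with CCF4, excitation 405 nm, emission ratio 460/530 nm.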

Structure (SMILES) | AC50
C=CCn1cc(C(=O)OC)c(=O)c2cc(S(=O)(=O)N3CCC(C)CC3)ccc21 | 25.1 µM [rising, single point]
O=C1C2CC=C(Cl)CC2C(=O)N1CN(Cc1ccco1)CN1C(=O)C2CC=C(Cl)CC2C1=O (stereo not given) | 3.16 µM [rising, single point]
COc1ccccc1C(=O)Nc1cc(-c2nn3c(C)nnc3s2)ccc1C | 10 µM [rising, partial curve]
COc1ccc(S(=O)(=O)C(C#N)c2nc3ccccc3nc2N2CCC(C)CC2)cc1 (stereo not given) | 10 µM [rising, partial curve]
Nc1ncnc2c1c(-c1ccc(Oc3ccccc3)cc1)cn2C1CCCC1 | 25.1 µM [falling, partial curve]
Cc1nc2c3c(-c4ccccc4)c(-c4ccccc4)oc3ncn2n1 | 20 µM [rising, single point]
COc1ccccc1-c1cc(Nc2ccc(F)cc2)ncn1 | 5.01 µM [rising, single point]
O=C(O)CCC(=O)N1CCN(c2nc3ccccc3s2)CC1 | 0.00316 µM [falling, full curve, poor fit]
CCCS(=O)(=O)N1CCCC(C(=O)N2CCOCC2)C1 (stereo not given) | 25.1 µM [rising, single point]
CCc1nn2c(N3CCOCC3)cc(C)nc2c1-c1ccc(F)cc1 | 2.51 µM [rising, single point]
Cc1[nH]nc2nc(SCC(=O)NCC3CCCO3)n(-c3ccc(Br)cc3)c(=N)c12 (stereo not given) | 15.8 µM [rising, partial curve]
N#Cc1ccccc1NC(=O)CSc1nnc(-c2ccccc2)n1-c1ccccc1 | 2.51 µM [falling, partial curve, poor fit]
COC(=O)CCSCc1cn2cc(Cl)ccc2n1 | 12.6 µM [falling, single point]
CCOC(=O)N1CCC(NS(=O)(=O)c2ccc3c(c2)C(C)(C)C(=O)N3C)CC1 | 0.251 µM [rising, full curve, poor fit]
Cc1cc(=O)[nH]c(-n2nc(C)cc2C)n1 | 5.01 µM [falling, single point]
CCOC(=O)CNC(=O)Cn1cnc2c(nnn2-c2cccc(Cl)c2)c1=O | 0.00398 µM [falling, full curve]
CCCCCCN(C(=O)CCCCCN1C(=O)NC(c2ccccc2-c2ccccc2)C(C(=O)OCc2ccccc2)=C1C)C(C(=O)NCCCC)c1ccc(OCC(=O)OC)c(C(=O)OC)c1 (stereo not given) | 25.1 µM [falling, single point]
COc1ccccc1CNc1ncnc2ccc(-c3cccc(C#N)c3)cc12 | 2 µM [rising, full curve]
CCOc1ccccc1-c1nc(C(N)=O)c2[nH]c(=O)n(-c3ccccc3)c2n1 | 10 µM [rising, partial curve]
N#Cc1c(N)nc2c(c1-c1ccncc1)CCCCCC2 | 2.51 µM [rising, full curve]
CC(C)OCCCN1C(=O)c2[nH]nc(-c3ccccc3O)c2C1c1cccc(Cl)c1 (stereo not given) | 6.31 µM [falling, partial curve]
Cc1nnc2ccc(Oc3ccc(-c4ccccc4)cc3)nn12 | 7.94 µM [rising, partial curve]

Structure (SMILES) | AC50
c1cn(-c2ncnc3sc4c(c23)CCCC4)cn1 | 3.16 µM [falling, partial curve]
COc1ccc(N2CCN(c3nc4c(c(=O)n(C)c(=O)n4C)n3Cc3ccccc3)CC2)cc1 | 12.6 µM [rising, single point]
O=C(C1CC1)N1CCc2cc(S(=O)(=O)N3CCCc4ccccc43)ccc21 | 2 µM [rising, full curve]
N#CC(C#N)=c1ccc2c(c1)NC1(CCCCC1)N=2 | 10 µM [falling, partial curve, poor fit]
COc1ccc(-c2cc(C(F)(F)F)nc(N3CCN(Cc4ccccc4)CC3)n2)cc1OC | 5.01 µM [rising, partial curve]
CCc1nc(NCCc2ccccn2)c2nnn(Cc3ccccc3F)c2n1 | 6.31 µM [rising, partial curve]
COCCNC(=O)COC(=O)CSCc1nc2ccccc2s1 | 1 µM [falling, partial curve, poor fit]
CCOC(=O)C1=C(C)N(c2ccccc2)C(=O)C1CC(=O)O (stereo not given) | 7.94 µM [falling, partial curve]
O=C(CSc1ncnc2sc3c(c12)CCCC3)c1ccco1 | 6.31 µM [rising, single point]
CC1CN(Cc2nc3c(c(=O)[nH]c(=O)n3C)n2CCCc2ccccc2)CC(C)O1 (stereo not given) | 3.16 µM [rising, single point]
COc1ccc(C(=O)N2CCc3cc(OC)c(OC)cc3C2)cc1OC | 25.1 µM [rising, single point]
CCCc1cc(C(=O)N2CCN(C(c3ccccc3)c3ccccc3)CC2)no1 | 10 µM [falling, single point]
CC(C)c1cccc2nc3c(c([Si](C)(C)C)c12)Cn1c-3cccc1=O | 12.6 µM [rising, partial curve]
O=C(CCCSc1nc(-c2ccco2)cc(C(F)(F)F)n1)Nc1ccc2c(c1)OCO2 | 12.6 µM [rising, single point]
O=C(N1CCCCCC1)N1CCN(C(=O)N2CCCCC2)CC1 | 0.158 µM [rising, full curve, poor fit]
CSc1nccn1CC(=O)Nc1ccc(F)cc1 | 0.0158 µM [falling, partial curve, poor fit]
O=C(Nc1ccc2oc(-c3ccccc3Cl)nc2c1)c1cncc(Br)c1 | 2.51 µM [rising, full curve]
N#Cc1cc2c(nc1SCC(=O)Nc1sc3c(c1C#N)CCC3)CCCCC2 | 12.6 µM [rising, partial curve]
Cc1nc2nc(C)c(CCC(=O)NCCCN3CCN(c4cccc(Cl)c4)CC3)c(C)n2n1 | 2 µM [falling, full curve]
COC(=O)[C@@]1(Cc2ccccc2)[C@H]2c3cc(C(=O)N(C)C)n(Cc4ccsc4Br)c3C[C@H]2CN1C(=O)c1ccccc1 | 12.6 µM [rising, partial curve, poor fit]
CCCCn1c(-c2ccsc2)nc2c1c(=O)[nH]c(=O)n2CCC | 10 µM [rising, partial curve]
COC(=O)C1=CN(C(C)C)C=C(C(=O)OC)C1c1cccc(OC)c1 | 10 µM [rising, partial curve]

For convenience, part of the list above:
Structure (SMILES) | AC50
CSc1nccn1CC(=O)Nc1ccc(F)cc1 | 0.0158 µM [falling, partial curve, poor fit]
O=C(Nc1ccc2oc(-c3ccccc3Cl)nc2c1)c1cncc(Br)c1 | 2.51 µM [rising, full curve]
N#Cc1cc2c(nc1SCC(=O)Nc1sc3c(c1C#N)CCC3)CCCCC2 | 12.6 µM [rising, partial curve]

(further entries)

Structure (SMILES) | AC50
CCOC(=O)C1Cn2c(nc3c(c2=O)C2(CCCC2)Cc2ccccc2-3)S1 (stereo not given) | 1 µM [rising, partial curve]
Cc1sc2nc(SCC(=O)N3CCCC3)[nH]c(=O)c2c1C | 10 µM [rising, partial curve]
Nc1nc2ccc(Cl)cc2c2nc(-c3ccco3)nn12 | 6.31 µM [rising, partial curve] and 158 nM [rising, full curve]
Cc1sc2nc(CN(C(=O)c3cccs3)C3CCCC3)[nH]c(=O)c2c1C | 10 µM [rising, partial curve]
Cc1cc2ncn(CCOc3ccccc3C#N)c2cc1C | 0.316 µM [rising, partial curve, poor fit]
Cc1ccc(C2CC(C(F)(F)F)n3nc(C(=O)NCCN4CCOCC4)cc3N2)cc1 (stereo not given) | 0.0126 µM [falling, partial curve, poor fit]
O=c1[nH]c(-c2ccccc2)c(-c2ccccc2)[nH]1 | 0.126 µM [rising, full curve]
CCOC(=O)c1ccc(Oc2nc(SC)nc(N(C)C)n2)cc1 | 0.00316 µM [falling, full curve, poor fit]
COc1ccc(CNc2nc(-c3ccc(N(C)C)cc3)nc3ccccc23)c(OC)c1 | 10 µM [rising, partial curve]
COc1ccc(Nc2ncc3c(n2)CC(c2ccc(OC)cc2)CC3=O)cc1 (stereo not given) | 10 µM [rising, single point]
COC(=O)[C@@]1(Cc2ccc(OC)cc2)[C@H]2c3cc(C(=O)N(C)C)n(Cc4ccccn4)c3C[C@H]2CN1C(=O)c1ccccc1 | 6.31 µM [rising, partial curve]
COCCNC(=O)CSc1nc(-c2ccc(OC)c(OC)c2)cc(C(F)(F)F)n1 | 6.31 µM [rising, partial curve]
COc1ccc(-c2nc(C#N)c(N3CCOCC3)o2)cc1OC | 0.251 µM [rising, single point]
CCOC(=O)CS(=O)(=O)c1nc(-c2ccc(F)cc2)cc(C(F)(F)F)n1 | 10 µM [falling, partial curve]
O=C(c1ccc(Cl)cc1)c1ccccc1C(=O)N1CCOCC1 | 12.6 µM [falling, partial curve, poor fit]
O=C(CN1C(=O)COc2ccccc21)N1CCN(c2ccccc2F)CC1 | 10 µM [falling, partial curve, poor fit]
CCCNC(=O)c1c(N)n(-c2cc(OC)cc(OC)c2)c2nc3ccccc3nc12 | 12.6 µM [rising, partial curve]
N#CCSc1nc2ccccc2c(=O)n1-c1ccccc1 | 12.6 µM [falling, partial curve]
CCc1nc(SCc2ccccn2)c2c(=O)n(C)c(=O)n(C)c2n1 | 2.51 µM [rising, full curve]
COc1cc2c(cc1C(F)(F)F)N(C(=O)Nc1cc(F)cc(-c3cccnc3)c1)CC2 | 0.794 µM [rising, full curve, poor fit]
Cc1cnc(CNc2ncnc3ccc(-c4ccccc4CN(C)C)cc23)cn1 | 3.16 µM [falling, partial curve, poor fit]
